Values joined by “and” are separate entries in the source; they are usually repeats but may differ in a detail not shown here. Equal entries are not always repeated. The source gives many values for each of these; only a part stands here.
Experiment: Tissue distribution of SHR9146 in mice after oral gavage of 40 mg/kg
Type: in vivo, ICR mice
Conditions: 40 mg/kg oral gavage, individual mice
Procedure: ICR mice with body weight 16–26 g were supplied by Shanghai Lingchang Biotechnology Co., Ltd. (animal breeding license number SCXK (Shanghai) 2013-0018) and housed at Shanghai Institute of Materia Medica, Chinese Academy of Sciences [animal use license number SYXK (Shanghai) 2015-0027]. The mice used in this study were fasted overnight for 12 h but had free access to water. Food was supplied 4 h post-dose. All experiments in this study were conducted in accordance with the Guidelines for the Care and Use of Laboratory Animals of Shanghai Institute of Materia Medica, Chinese Academy of Sciences.
Another set of 30 mice were randomly assigned into five groups with equal numbers, males and females, for tissue distribution study with oral gavage at a single dose of 40 mg/kg at predetermined different time points: pre-dose and post dose at 1, 3, 6, and 24 h, respectively. The whole brain, heart, liver, spleen, lung, kidney, bladder, pancreas, testis, ovary, uterus, stomach, small intestine, adrenal gland, skin, skeletal muscle, thyroid gland, and abdominal fat tissues as well as the whole blood and plasma samples were harvested. Tissue samples were washed with 0.9% sodium chloride solution to remove the residual blood or contents, blotted on a filter paper, and stored at −70°C prior to the analysis.
Protein precipitation was selected for the pretreatment of both the plasma and the tissue homogenate prepared after thawing at room temperature, cut into pieces, and homogenized with a quintuple methanol–water mixture (1:1, v/v) for each tissue sample.
Briefly as follows, an aliquot of 25-μL plasma or tissue homogenate was spiked with 100 μL of internal standard solution (1 μg/mL for plasma, 0.2 μg/mL for tissue homogenate) and 300 μL of methanol added and vortex mixed for 60 s. The mixture was then centrifuged at 14,000 rpm at 4°C for 5.0 min, and the supernatant was diluted with methanol–water (4:1, v/v) in a ratio of 1:9 for the plasma or 1:1 for the tissue homogenate, and 5 μL of the resulting solution was injected for the LC-MS/MS analysis.
After oral administration of 40 mg/kg SHR9146, samples in different tissues at predetermined time points (pre-drug administration, post-drug administration at 1, 3, 6, and 24 h) were collected and prepared for the analysis. The drug concentrations of SHR9146 (μg/g or μg/mL) were determined for each mouse, and the mean and standard deviation were further obtained (Table S7).

## OCCn1cc(-c2ccc(N3CCC([C@H]4c5c(F)cccc5-c5cncn54)CC3)cc2)cn1 [SHR9146]
female, 1 h
  SHR9146 concentration in Abdominal fat: 15.163 µg/g and 13.658 µg/g
  SHR9146 concentration in Adrenal gland: 48.417 µg/g and 30.170 µg/g
  SHR9146 concentration in Brain: 2.851 µg/g and 2.073 µg/g
  SHR9146 concentration in Heart: 12.549 µg/g and 8.655 µg/g
  SHR9146 concentration in Ovary: 21.867 µg/g and 16.170 µg/g
  SHR9146 concentration in Plasma: 15.949 µg/mL and 11.706 µg/mL
  SHR9146 concentration in Skeletal muscle: 10.584 µg/g and 6.380 µg/g
  SHR9146 concentration in Skin: 14.126 µg/g and 9.548 µg/g
  SHR9146 concentration in Spleen: 8.069 µg/g and 5.842 µg/g
  SHR9146 concentration in Stomach: 31.730 µg/g and 24.126 µg/g
  SHR9146 concentration in Uterus: 13.423 µg/g and 9.041 µg/g
  SHR9146 concentration in Whole blood: 11.230 µg/mL and 7.393 µg/mL
  SHR9146 concentration in thyroid gland: 11.884 µg/g and 8.433 µg/g
female, 3 h
  SHR9146 concentration in Abdominal fat: 9.686 µg/g and 12.161 µg/g and 4.954 µg/g
  SHR9146 concentration in Adrenal gland: 31.830 µg/g and 35.567 µg/g and 15.959 µg/g
  SHR9146 concentration in Brain: 1.713 µg/g and 2.082 µg/g and 0.887 µg/g
  SHR9146 concentration in Heart: 7.542 µg/g and 9.931 µg/g and 3.633 µg/g
  SHR9146 concentration in Ovary: 13.010 µg/g and 17.161 µg/g and 8.006 µg/g
  SHR9146 concentration in Plasma: 9.347 µg/mL and 12.892 µg/mL and 4.974 µg/mL
  SHR9146 concentration in Skeletal muscle: 6.781 µg/g and 7.825 µg/g and 3.125 µg/g
  SHR9146 concentration in Skin: 8.432 µg/g and 10.770 µg/g and 3.900 µg/g
  SHR9146 concentration in Spleen: 5.069 µg/g and 6.401 µg/g and 2.751 µg/g
  SHR9146 concentration in Stomach: 28.434 µg/g and 24.290 µg/g
  SHR9146 concentration in Uterus: 6.328 µg/g and 8.819 µg/g and 2.989 µg/g
  SHR9146 concentration in Whole blood: 6.378 µg/mL and 8.869 µg/mL and 3.336 µg/mL
  SHR9146 concentration in thyroid gland: 7.190 µg/g and 9.783 µg/g and 3.848 µg/g
female, 6 h
  SHR9146 concentration in Abdominal fat: 1.072 µg/g and 0.057 µg/g and 0.117 µg/g
  SHR9146 concentration in Heart: 0.851 µg/g and 0.052 µg/g and 0.098 µg/g
  SHR9146 concentration in Ovary: 1.842 µg/g and 0.270 µg/g
  SHR9146 concentration in Plasma: 1.220 µg/mL and 0.070 µg/mL and 0.124 µg/mL
  SHR9146 concentration in Skeletal muscle: 0.812 µg/g and 0.071 µg/g
  SHR9146 concentration in Skin: 1.162 µg/g and 0.119 µg/g and 0.212 µg/g
  SHR9146 concentration in Spleen: 0.659 µg/g and 0.065 µg/g
  SHR9146 concentration in Stomach: 7.838 µg/g and 1.544 µg/g and 2.234 µg/g
  SHR9146 concentration in Uterus: 0.978 µg/g and 0.110 µg/g
  SHR9146 concentration in Whole blood: 0.815 µg/mL and 0.079 µg/mL
  SHR9146 concentration in thyroid gland: 0.983 µg/g and 0.053 µg/g and 0.098 µg/g
female, 24 h
  SHR9146 concentration in Stomach: 0.908 µg/g and 0.854 µg/g
male, 1 h
  SHR9146 concentration in Abdominal fat: 11.412 µg/g and 4.018 µg/g and 6.182 µg/g
  SHR9146 concentration in Adrenal gland: 30.720 µg/g and 15.849 µg/g
  SHR9146 concentration in Brain: 2.025 µg/g and 1.358 µg/g
  SHR9146 concentration in Heart: 8.960 µg/g and 4.578 µg/g
  SHR9146 concentration in Skeletal muscle: 6.868 µg/g and 3.823 µg/g
  SHR9146 concentration in Skin: 7.972 µg/g and 9.354 µg/g and 4.304 µg/g
  SHR9146 concentration in Spleen: 5.584 µg/g and 3.409 µg/g
  SHR9146 concentration in Stomach: 32.524 µg/g and 41.599 µg/g
  SHR9146 concentration in Testis: 4.834 µg/g and 3.007 µg/g
  SHR9146 concentration in Whole blood: 7.419 µg/mL and 3.946 µg/mL
  SHR9146 concentration in thyroid gland: 9.009 µg/g and 4.759 µg/g
male, 3 h
  SHR9146 concentration in Abdominal fat: 0.268 µg/g and 5.628 µg/g and 6.299 µg/g
  SHR9146 concentration in Adrenal gland: 0.520 µg/g and 13.407 µg/g and 11.425 µg/g
  SHR9146 concentration in Brain: 0.981 µg/g
  SHR9146 concentration in Heart: 0.140 µg/g and 3.802 µg/g and 4.054 µg/g
  SHR9146 concentration in Plasma: 0.163 µg/mL and 5.182 µg/mL and 5.790 µg/mL
  SHR9146 concentration in Skeletal muscle: 0.111 µg/g and 3.247 µg/g and 3.299 µg/g
  SHR9146 concentration in Skin: 0.202 µg/g and 4.582 µg/g and 4.535 µg/g
  SHR9146 concentration in Spleen: 0.097 µg/g and 2.465 µg/g and 2.538 µg/g
  SHR9146 concentration in Stomach: 0.927 µg/g and 18.374 µg/g and 11.306 µg/g
  SHR9146 concentration in Testis: 0.166 µg/g and 2.308 µg/g and 2.504 µg/g
  SHR9146 concentration in Whole blood: 0.119 µg/mL and 3.297 µg/mL and 3.895 µg/mL
  SHR9146 concentration in thyroid gland: 0.163 µg/g and 3.897 µg/g and 4.136 µg/g
male, 6 h
  SHR9146 concentration in Abdominal fat: 0.067 µg/g and 0.157 µg/g
  SHR9146 concentration in Heart: 0.085 µg/g
  SHR9146 concentration in Plasma: 0.094 µg/mL
  SHR9146 concentration in Skin: 0.148 µg/g and 0.058 µg/g and 0.134 µg/g
  SHR9146 concentration in Stomach: 1.364 µg/g and 0.499 µg/g and 1.545 µg/g
  SHR9146 concentration in Testis: 0.101 µg/g and 0.050 µg/g and 0.148 µg/g
  SHR9146 concentration in thyroid gland: 0.117 µg/g
male, 24 h
  SHR9146 concentration in Stomach: 0.363 µg/g and 0.231 µg/g and 0.904 µg/g

From publication PMC10410440, “Preclinical PK investigation of a novel IDO1/TDO dual inhibitor—SHR9146 in mouse plasma and tissues by LC-MS/MS” (Frontiers in Oncology, 2023)
